# Laboratory results taken from the supplement of paper PMC9233669.
# Variants at the floor of the assay are shown more often than the library holds them.
# Assays:
# biotinyl-Met-oxazolone = experiment: self-aminoacylation, catalytic enhancement (BMO) (fold over background); higher = more active; k-Seq, kA / k0A0; sequences stand for … in GGGAAUGGAUCCACAUCUACGAAUUC…UUCACUGCAGACUUGACGAAGCUG
# How it was run: (§1)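 Catalytic enhancement equals the median kA over the uncatalyzed rate, the latter read from the low-activity peak of a bimodal Gaussian fit. Values of kA came from fitting each sequence's fraction reacted to a pseudo-first-order model, with 1000 bootstraps. Reacted RNA was captured with streptavidin and quantified by triplicate qPCR and Illumina sequencing after 90 minutes at room temperature with 2–1250 μM biotinyl-aminoacyl-oxazolone and 0.43 μM mutagenized RNA pools bearing a 21-nt variable region.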
# biotinyl-Leu-oxazolone = experiment: self-aminoacylation, catalytic enhancement (BLO) (fold over background); higher = more active; k-Seq, kA / k0A0; sequences stand for … in GGGAAUGGAUCCACAUCUACGAAUUC…UUCACUGCAGACUUGACGAAGCUG
# How it was run: as §1
# biotinyl-Val-oxazolone = experiment: self-aminoacylation, catalytic enhancement (BVO) (fold over background); higher = more active; k-Seq, kA / k0A0; sequences stand for … in GGGAAUGGAUCCACAUCUACGAAUUC…UUCACUGCAGACUUGACGAAGCUG
# How it was run: as §1
# biotinyl-Ile-oxazolone = experiment: self-aminoacylation, catalytic enhancement (BIO) (fold over background); higher = more active; k-Seq, kA / k0A0; sequences stand for … in GGGAAUGGAUCCACAUCUACGAAUUC…UUCACUGCAGACUUGACGAAGCUG
# How it was run: as §1
Sequence,self-aminoacylation (biotinyl-Met-oxazolone),self-aminoacylation (biotinyl-Leu-oxazolone),self-aminoacylation (biotinyl-Val-oxazolone),self-aminoacylation (biotinyl-Ile-oxazolone)
CUACUCCAAACAAUCGAUCUG [Fam1A.1 aminoacylation ribozyme variant],0.48,0.533,0.661,0.704
CCACCCUUCAAUCAAUCGGUC [Fam1B.1 aminoacylation ribozyme variant],1.19,1.54,1.25,1.2
AAGUUCGCUAAUAGUCGUAAG [Fam3.1 aminoacylation ribozyme variant],1.14,1.07,1.1,1.14
GUACUUCAAACAAUCGGACUG [Fam1A.1 aminoacylation ribozyme variant],1.42,1.28,1.35,1.47
ACGUUUGCUAAUAGUCGCAAG [Fam3.1 aminoacylation ribozyme variant],1.87,1.69,1.49,1.7
CUGCUUCAAUCAAUCGGUCUG [Fam1A.1 aminoacylation ribozyme variant],1.42,1.97,1.14,1.03
CUAUUUCAAACAAUCGGCCUG [Fam1A.1 aminoacylation ribozyme variant],1.34,1.38,1.24,1.36
CGACUUCAAACAAUCGGUCUA [Fam1A.1 aminoacylation ribozyme variant],0.98,1.17,1.43,1.19
AUUCACGUAGGUCAUCGGGUA [Fam2.2 aminoacylation ribozyme variant],3.16,2.95,3.72,2.9
AACUUUGCUAAUAGUCGCACG [Fam3.1 aminoacylation ribozyme variant],1.82,2.15,2.05,2.49
AUUUCCCUGUUCAUCGAGUGA [Fam2.1 aminoacylation ribozyme variant],5.22,5.04,3.09,2.79
AGUACCCUGGUCCUCGAGUGA [Fam2.1 aminoacylation ribozyme variant],4.14,5.58,2.81,2.7
AUUACCCUGGUGAUCGCGUGA [Fam2.1 aminoacylation ribozyme variant],4.66,4.38,4.19,3.45
UUUCACCUAGGUGAUCGGGUG [Fam2.2 aminoacylation ribozyme variant],3.5,4.15,3.67,3.55
AAGUUUGCAAAUAGUCUCAAG [Fam3.1 aminoacylation ribozyme variant],1.12,0.747,0.772,0.987
CUACACUUCAAUCAAUCGGUC [Fam1B.1 aminoacylation ribozyme variant],0.833,1.32,0.884,0.853
CUACUUCAACUAAUCGGUCUG [Fam1A.1 aminoacylation ribozyme variant],0.807,0.871,0.938,0.779
CUUAUUCAAACAAUCGGUCUG [Fam1A.1 aminoacylation ribozyme variant],0.713,0.679,0.688,0.702
AUGUUUGCUAAUAGUCGCAAG [Fam3.1 aminoacylation ribozyme variant],1.48,1.29,1.4,1.51
AAGUUUGCGAAGAGUCGCAAG [Fam3.1 aminoacylation ribozyme variant],0.955,1.04,1.21,1.36
CCACUUCAAACAAUCGGCCUG [Fam1A.1 aminoacylation ribozyme variant],4.68,7.46,4.05,4.3

Sequence,self-aminoacylation (biotinyl-Met-oxazolone),self-aminoacylation (biotinyl-Leu-oxazolone),self-aminoacylation (biotinyl-Val-oxazolone),self-aminoacylation (biotinyl-Ile-oxazolone)
CUACUUCAAAUAAUCGGACUG [Fam1A.1 aminoacylation ribozyme variant],0.655,0.582,0.587,0.721
CCCCACUUUAAGCAAUCGGUC [Fam1B.1 aminoacylation ribozyme variant],0.858,1.06,1.69,1.38
AAGUUUCCUAAUACUCGCAAG [Fam3.1 aminoacylation ribozyme variant],1,0.891,0.889,0.862
CGACCUCAAACAAUCGGUCUG [Fam1A.1 aminoacylation ribozyme variant],1.36,1.31,1.45,1.51
AUCACCCUGGUGAUCGAGUGA [Fam2.1 aminoacylation ribozyme variant],7.25,8.91,3.87,3.57
CUACUUCAAACAAUCGGGGUG [Fam1A.1 aminoacylation ribozyme variant],3.77,4.32,2.35,3.04
AUUCACCUAGGGCAUUGGGUG [Fam2.2 aminoacylation ribozyme variant],6.54,8.05,3.49,3.74
CUACUUCAACCAAUCGGUCGG [Fam1A.1 aminoacylation ribozyme variant],1.55,1.34,1.11,1.24
GCACAUUUCAAGCAAUCGGUC [Fam1B.1 aminoacylation ribozyme variant],1.5,1.67,1.68,1.61
AUUACCCAAGUCAUCGAGUGA [Fam2.1 aminoacylation ribozyme variant],8.57,9.5,4.46,4.5
AAGUUUGGUAAUAGUCGCAAG [Fam3.1 aminoacylation ribozyme variant],1.22,1.25,1.19,1.32
AUUACCUUGGUAAUCGAGUGA [Fam2.1 aminoacylation ribozyme variant],7.66,8.08,3.87,3.52
CAACUUCAAACAAUCGGUCUA [Fam1A.1 aminoacylation ribozyme variant],0.924,1.37,1.29,1.31
CUACUUCAAACAAGCGGUCUA [Fam1A.1 aminoacylation ribozyme variant],0.838,0.73,0.707,0.936
AUUCCCCUAGGUCAGCGGGUG [Fam2.2 aminoacylation ribozyme variant],11.1,14.1,7.83,8.05
GAGUUUGCUAAUAGUCGCAAU [Fam3.1 aminoacylation ribozyme variant],1.64,1.57,1.93,–
GUACUUCAAACAAUCAGUCUG [Fam1A.1 aminoacylation ribozyme variant],1.11,1.56,1.25,1.38
CCACUUCAAAUAAUCGGUCUG [Fam1A.1 aminoacylation ribozyme variant],1.32,1.42,1.13,1.17
CUACUUCAAACAAUCGGACUG [Fam1A.1 aminoacylation ribozyme variant],0.749,0.885,0.836,0.848
AUUCACCUAGGUCAUCCGGUG [Fam2.2 aminoacylation ribozyme variant],6.35,8.38,4.69,4.67
CUACUUCAAUCAAUCGGUCUC [Fam1A.1 aminoacylation ribozyme variant],0.912,1.2,0.926,1

Sequence,self-aminoacylation (biotinyl-Met-oxazolone),self-aminoacylation (biotinyl-Leu-oxazolone),self-aminoacylation (biotinyl-Val-oxazolone),self-aminoacylation (biotinyl-Ile-oxazolone)
AGUGCCCUGGUCAUCGAGUGA [Fam2.1 aminoacylation ribozyme variant],12.5,14.5,5.79,6.36
CUCCUUCAAACAAUCGGACUG [Fam1A.1 aminoacylation ribozyme variant],0.931,1.42,1.16,1.01
AUACUUCAAACAAUAGGUCUG [Fam1A.1 aminoacylation ribozyme variant],0.812,0.835,0.923,1.08
CCACACUUCAAGCAGUCUGUC [Fam1B.1 aminoacylation ribozyme variant],0.383,0.353,0.478,0.339
GAGUUUGCUAAUAGUCGAAAG [Fam3.1 aminoacylation ribozyme variant],1.61,1.32,1.17,1.61
GAGUUUGCUAAAAGUCGCAAG [Fam3.1 aminoacylation ribozyme variant],1.96,1.6,–,1.37
AUUACCAUGGUCAUCGAGGGA [Fam2.1 aminoacylation ribozyme variant],1.94,1.65,1.46,1.75
AAGUUGGCUAAUAGUCGAAAG [Fam3.1 aminoacylation ribozyme variant],1.57,1.46,1.27,1.33
UCACACUUCAAGCAAUCGGCC [Fam1B.1 aminoacylation ribozyme variant],1.91,1.99,1.45,1.84
CCACCUCAAACAAUCGGUCUG [Fam1A.1 aminoacylation ribozyme variant],1.5,1.43,1.95,1.52
CCAAACUUCAAGCAAUCGGUU [Fam1B.1 aminoacylation ribozyme variant],1.73,1.65,1.66,1.61
AUUCACCUACGUCAGCGGGUG [Fam2.2 aminoacylation ribozyme variant],4.72,6.17,2.71,2.95
CCACACUUCACGCGAUCGGUC [Fam1B.1 aminoacylation ribozyme variant],1.48,1.84,2.17,1.46
CCGCACUUCAACCAAUCGGUC [Fam1B.1 aminoacylation ribozyme variant],2.05,3.41,2.38,2.09
UUACUUCAAACAAUCGGUCUU [Fam1A.1 aminoacylation ribozyme variant],1.07,1.27,1.05,1.25
CGAAUUCAAACAAUCGGUCUG [Fam1A.1 aminoacylation ribozyme variant],0.875,1.03,0.84,0.96
CCACAGUUCAAGCAAUCGGUC [Fam1B.1 aminoacylation ribozyme variant],1.01,1.1,1.13,1.1
AAUUCUGCUAAUAGUCGCAAG [Fam3.1 aminoacylation ribozyme variant],1.81,1.61,1.56,1.88
CCCCACUCCAAGCAAUCGGUC [Fam1B.1 aminoacylation ribozyme variant],1.84,1.68,–,1.71
